Assay results reported in paper PMC12809119.
No constants are given. Whether binding was seen depends on the method and setting. Binding seen in cells or lysates may run through a third protein. These calls come from enrichment with a bait or labelling near it, and not all partners need be listed. No binding means not detected with the bait.

Chains of the proteins cited; added tags and fusions are not shown.
UniProt O60678: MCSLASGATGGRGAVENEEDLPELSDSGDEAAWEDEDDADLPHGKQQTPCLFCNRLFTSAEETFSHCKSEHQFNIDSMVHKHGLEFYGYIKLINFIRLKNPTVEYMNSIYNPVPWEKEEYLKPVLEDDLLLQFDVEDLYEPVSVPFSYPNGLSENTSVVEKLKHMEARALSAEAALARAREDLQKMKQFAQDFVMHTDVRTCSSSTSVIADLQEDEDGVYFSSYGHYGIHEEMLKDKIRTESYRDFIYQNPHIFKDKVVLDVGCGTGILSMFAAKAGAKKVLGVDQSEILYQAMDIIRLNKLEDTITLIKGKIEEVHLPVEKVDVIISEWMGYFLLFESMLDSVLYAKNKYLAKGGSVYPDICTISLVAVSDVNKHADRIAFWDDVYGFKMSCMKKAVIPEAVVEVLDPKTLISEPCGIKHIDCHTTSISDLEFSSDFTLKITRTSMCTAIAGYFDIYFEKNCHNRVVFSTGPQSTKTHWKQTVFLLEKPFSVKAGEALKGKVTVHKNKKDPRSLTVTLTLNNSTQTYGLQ
UniProt P14902: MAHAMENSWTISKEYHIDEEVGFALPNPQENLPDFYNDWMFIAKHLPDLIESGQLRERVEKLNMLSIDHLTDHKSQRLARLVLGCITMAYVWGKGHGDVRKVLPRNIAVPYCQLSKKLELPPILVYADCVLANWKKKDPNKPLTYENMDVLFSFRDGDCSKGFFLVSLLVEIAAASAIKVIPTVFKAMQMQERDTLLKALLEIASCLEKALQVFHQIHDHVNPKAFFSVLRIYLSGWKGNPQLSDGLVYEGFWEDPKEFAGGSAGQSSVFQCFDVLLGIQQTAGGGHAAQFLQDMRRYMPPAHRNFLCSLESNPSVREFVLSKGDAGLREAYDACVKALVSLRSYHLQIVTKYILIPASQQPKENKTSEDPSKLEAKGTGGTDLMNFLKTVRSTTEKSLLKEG
UniProt P05549: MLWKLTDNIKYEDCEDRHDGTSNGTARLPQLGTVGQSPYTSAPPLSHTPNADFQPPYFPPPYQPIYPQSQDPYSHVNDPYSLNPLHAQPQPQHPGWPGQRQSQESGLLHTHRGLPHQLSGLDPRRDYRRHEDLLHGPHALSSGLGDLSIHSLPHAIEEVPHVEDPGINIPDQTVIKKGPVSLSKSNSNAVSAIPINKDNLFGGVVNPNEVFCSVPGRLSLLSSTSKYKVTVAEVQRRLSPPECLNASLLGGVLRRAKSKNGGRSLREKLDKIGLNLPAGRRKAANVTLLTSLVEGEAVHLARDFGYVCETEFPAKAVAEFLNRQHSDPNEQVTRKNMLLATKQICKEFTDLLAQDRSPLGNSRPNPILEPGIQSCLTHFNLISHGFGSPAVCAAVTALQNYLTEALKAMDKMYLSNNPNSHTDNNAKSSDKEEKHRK

Target: protein arginine methyltransferase-3 (PRMT3) (human) (UniProt O60678)
Assay: affinity purification with mass spectrometry; co-IP of PRMT3 from cell lysate, trypsin digestion, 4D-Fast DIA qualitative proteomics, DIA-NN search

Row | Substance | binding
1 | indoleamine 2,3-dioxygenase 1 (IDO1) (from UniProt P14902 1-403) (enzyme) | no binding
2 | transcription factor TFAP2A (from UniProt P05549 1-437) | binds
